Source: PubChem BioAssay AID686938 (Drosophila RNAi Screening Center, 2013)
In all, the deposit lists about 23,000 reagents; below is an unselected part of those that have a named target and a result. Over the whole deposit, 75 (0.33%) are marked active. 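Raw plate signals without normalisation; calls rest on plate z-scores that were not deposited; ratio present for only 364 wells.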 Entries without a mark were called inactive. Not stated in the record: the dose of the treatment.

- Purpose: 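Looking for CRAC channel components and the factors controlling them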 (primary screen)
- Cell system: Drosophila S2R+ cells
- Reagent: long dsRNA against Drosophila genes, about 0.25 µg dsRNA per well, roughly 10,000 cells
- Duration: 5 days of knock-down before the calcium assay
- Treatment: thapsigargin (SERCA pump blocker) to empty calcium stores; entry signal taken 4 min after adding it
- Detection: 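Duplicate raw fluo-4 intensities per well from a plate reader, at rest and four minutes after thapsigargin emptied calcium stores; entry-to-rest ratio filled for only some wells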
- Scale: calcium entry signal: higher = stronger calcium signal after store depletion; resting calcium signal: higher = higher resting calcium signal
- Units: calcium entry signal in fluorescence units; resting calcium signal in fluorescence units
- Hit rule: 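Hit if the duplicate-averaged plate z-score for entry over resting signal is under −3; wells with weak total dye signal (Fmax z < −2) or more than 5 off-targets removed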
- Meaning of the calls: active = strongly reduced calcium entry; inactive = no strong reduction

NP15.6 [DRSC16756] scored calcium entry signal, replicate 1 = 3.54e7; calcium entry signal, replicate 2 = 3.44e7; resting calcium signal, replicate 1 = 4.10e7; resting calcium signal, replicate 2 = 1.58e7.
After knock-down of CG10041 [DRSC14179], the record shows calcium entry signal, replicate 1 = 3.35e7; calcium entry signal, replicate 2 = 3.07e7; resting calcium signal, replicate 1 = 1.62e7; resting calcium signal, replicate 2 = 1.44e7.
For St4 [DRSC07008], the values are calcium entry signal, replicate 1 = 3.37e7; calcium entry signal, replicate 2 = 3.56e7; resting calcium signal, replicate 1 = 1.78e7; resting calcium signal, replicate 2 = 1.81e7.
CG11679 [DRSC19415] scored calcium entry signal, replicate 1 = 4.08e7; calcium entry signal, replicate 2 = 4.32e7; resting calcium signal, replicate 1 = 1.84e7; resting calcium signal, replicate 2 = 2.01e7.
With knock-down of NELF-B [DRSC17734] the results were calcium entry signal, replicate 1 = 4.09e7; calcium entry signal, replicate 2 = 4.41e7; resting calcium signal, replicate 1 = 2.03e7; resting calcium signal, replicate 2 = 2.05e7.
Cap-D3 [DRSC02349] showed calcium entry signal, replicate 1 = 2.02e7; calcium entry signal, replicate 2 = 2.32e7; resting calcium signal, replicate 1 = 1.11e7; resting calcium signal, replicate 2 = 9.89e6.
Ibf2 [DRSC16551] showed calcium entry signal, replicate 1 = 3.10e7; calcium entry signal, replicate 2 = 3.44e7; resting calcium signal, replicate 1 = 1.65e7; resting calcium signal, replicate 2 = 1.78e7.

Quoted from the listing, 2 entries:
CG11679 [DRSC19415]: calcium entry signal, replicate 1 = 4.08e7; calcium entry signal, replicate 2 = 4.32e7; resting calcium signal, replicate 1 = 1.84e7; resting calcium signal, replicate 2 = 2.01e7
NELF-B [DRSC17734]: calcium entry signal, replicate 1 = 4.09e7; calcium entry signal, replicate 2 = 4.41e7; resting calcium signal, replicate 1 = 2.03e7; resting calcium signal, replicate 2 = 2.05e7

More entries:
Silencing of CG13946 [DRSC00364] gave: calcium entry signal, replicate 1 = 2.42e7; calcium entry signal, replicate 2 = 2.45e7; resting calcium signal, replicate 1 = 1.13e7; resting calcium signal, replicate 2 = 1.12e7.
After knock-down of CG12640 [DRSC17847], the screen gave calcium entry signal, replicate 1 = 2.81e7; calcium entry signal, replicate 2 = 6.67e7; resting calcium signal, replicate 1 = 1.68e7; resting calcium signal, replicate 2 = 2.86e7.
Knock-down of CG9497 [DRSC03234] gave: calcium entry signal, replicate 1 = 5.10e7; resting calcium signal, replicate 1 = 2.58e7.
Depletion of Dsk [DRSC12347] came out at: calcium entry signal, replicate 1 = 3.02e7; calcium entry signal, replicate 2 = 4.60e7; resting calcium signal, replicate 1 = 1.50e7; resting calcium signal, replicate 2 = 2.11e7.
Against CG7236 [DRSC03037], the entry reads calcium entry signal, replicate 1 = 2.72e7; calcium entry signal, replicate 2 = 2.61e7; resting calcium signal, replicate 1 = 1.45e7; resting calcium signal, replicate 2 = 1.36e7.
